# Reference: the supplement of paper PMC8728848
# The other results are listed elsewhere or left out.
# Columns and labels:
# Test in all cases: glycan array binding signal (z-score within array); higher = stronger binding
# Conditions in all cases: glycan notation: IUPAC condensed, linker removed
# [1] = biological target: Gal(b1-4)GlcNAc(b1-3)Gal(b1-4)GlcNAc(b1-3)Gal(b1-4)GlcNAc(b1-3)Gal(b1-4)GlcNAc(b1-2)Man(a1-3)[Gal(b1-4)GlcNAc(b1-3)Gal(b1-4)GlcNAc(b1-3)Gal(b1-4)GlcNAc(b1-3)Gal(b1-4)GlcNAc(b1-2)Man(a1-6)]Man(b1-4)GlcNAc(b1-4)[Fuc(a1-6)]GlcNAc
# Procedure, shortened: (§1)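 Columns mapping to the same glycan were averaged after glycan names were converted to IUPAC-condensed notation. The data come from 3228 arrays in the Consortium for Functional Glycomics database, limited to those with an available protein sequence. Binding is reported as a within-array Z-score averaged across arrays of one protein sequence and across linkers.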
# [2] = biological target: Gal(b1-4)GlcNAc(b1-3)Gal(b1-4)GlcNAc(b1-3)Gal(b1-4)GlcNAc(b1-3)Gal(b1-4)GlcNAc(b1-2)[Gal(b1-4)GlcNAc(b1-3)Gal(b1-4)GlcNAc(b1-3)Gal(b1-4)GlcNAc(b1-3)Gal(b1-4)GlcNAc(b1-6)]Man(a1-6)[Gal(b1-4)GlcNAc(b1-3)Gal(b1-4)GlcNAc(b1-3)Gal(b1-4)GlcNAc(b1-3)Gal(b1-4)GlcNAc(b1-2)Man(a1-3)]Man(b1-4)GlcNAc(b1-4)[Fuc(a1-6)]GlcNAc
# Procedure, shortened: as §1
# [3] = biological target: Gal(b1-4)GlcNAc(b1-3)Gal(b1-4)GlcNAc(b1-3)Gal(b1-4)GlcNAc(b1-3)Gal(b1-4)GlcNAc(b1-3)Gal(b1-4)GlcNAc(b1-2)Man(a1-3)[Gal(b1-4)GlcNAc(b1-3)Gal(b1-4)GlcNAc(b1-3)Gal(b1-4)GlcNAc(b1-3)Gal(b1-4)GlcNAc(b1-3)Gal(b1-4)GlcNAc(b1-2)Man(a1-6)]Man(b1-4)GlcNAc(b1-4)GlcNAc
# Procedure, shortened: as §1
# [4] = biological target: Gal(b1-4)GlcNAc(b1-3)Gal(b1-4)GlcNAc(b1-3)Gal(b1-4)GlcNAc(b1-3)Gal(b1-4)GlcNAc(b1-3)Gal(b1-4)GlcNAc(b1-2)Man(a1-3)[Gal(b1-4)GlcNAc(b1-3)Gal(b1-4)GlcNAc(b1-3)Gal(b1-4)GlcNAc(b1-3)Gal(b1-4)GlcNAc(b1-3)Gal(b1-4)GlcNAc(b1-2)Man(a1-6)]Man(b1-4)GlcNAc(b1-4)[Fuc(a1-6)]GlcNAc
# Procedure, shortened: as §1
# [5] = biological target: Gal(b1-4)GlcNAc(b1-3)Gal(b1-4)GlcNAc(b1-3)Gal(b1-4)GlcNAc(b1-3)Gal(b1-4)GlcNAc(b1-3)Gal(b1-4)GlcNAc(b1-2)[Gal(b1-4)GlcNAc(b1-3)Gal(b1-4)GlcNAc(b1-3)Gal(b1-4)GlcNAc(b1-3)Gal(b1-4)GlcNAc(b1-3)Gal(b1-4)GlcNAc(b1-6)]Man(a1-6)[Gal(b1-4)GlcNAc(b1-3)Gal(b1-4)GlcNAc(b1-3)Gal(b1-4)GlcNAc(b1-3)Gal(b1-4)GlcNAc(b1-3)Gal(b1-4)GlcNAc(b1-2)Man(a1-3)]Man(b1-4)GlcNAc(b1-4)[Fuc(a1-6)]GlcNAc
# Procedure, shortened: as §1
# [6] = biological target: Gal(b1-4)GlcNAc(b1-3)Gal(b1-4)GlcNAc(b1-3)Gal(b1-4)GlcNAc(b1-3)Gal(b1-4)GlcNAc(b1-3)Gal(b1-4)GlcNAc(b1-3)Gal(b1-4)GlcNAc(b1-2)Man(a1-3)[Gal(b1-4)GlcNAc(b1-3)Gal(b1-4)GlcNAc(b1-3)Gal(b1-4)GlcNAc(b1-3)Gal(b1-4)GlcNAc(b1-3)Gal(b1-4)GlcNAc(b1-3)Gal(b1-4)GlcNAc(b1-2)Man(a1-6)]Man(b1-4)GlcNAc(b1-4)GlcNAc
# Procedure, shortened: as §1
# [7] = biological target: Gal(b1-4)GlcNAc(b1-3)Gal(b1-4)GlcNAc(b1-3)GalNAc
# Procedure, shortened: as §1
# [8] = biological target: Gal(b1-4)GlcNAc(b1-3)Gal(b1-4)GlcNAc(b1-3)[Gal(b1-4)GlcNAc(b1-3)Gal(b1-4)GlcNAc(b1-6)]GalNAc
# Procedure, shortened: as §1
# [9] = biological target: Gal(b1-4)GlcNAc(b1-3)Gal(b1-4)GlcNAc(b1-6)[Gal(b1-3)]GalNAc
# Procedure, shortened: as §1
# [10] = biological target: Gal(b1-4)GlcNAc(b1-3)Gal(b1-4)[Fuc(a1-3)]GlcNAc(b1-3)Gal(b1-4)[Fuc(a1-3)]GlcNAc
# Procedure, shortened: as §1
# [11] = biological target: Gal(b1-4)GlcNAc(b1-3)GalNAc
# Procedure, shortened: as §1
# [12] = biological target: Gal(b1-4)GlcNAc(b1-3)[Fuc(a1-3)GlcNAc(b1-6)]Gal(b1-4)Glc
# Procedure, shortened: as §1
# [13] = biological target: Gal(b1-4)GlcNAc(b1-3)[Gal(b1-4)GlcNAc(b1-6)]Gal(b1-4)GlcNAc
# Procedure, shortened: as §1
# [14] = biological target: Gal(b1-4)GlcNAc(b1-3)[GlcNAc(b1-6)]Gal(b1-4)GlcNAc
# Procedure, shortened: as §1
# [15] = biological target: Gal(b1-4)GlcNAc(b1-6)Gal(b1-4)GlcNAc
# Procedure, shortened: as §1
# [16] = biological target: Gal(b1-4)GlcNAc(b1-6)Gal(b1-4)GlcNAc(b1-6)GalNAc
# Procedure, shortened: as §1
# [17] = biological target: Gal(b1-4)GlcNAc(b1-6)GalNAc
# Procedure, shortened: as §1
# [18] = biological target: Gal(b1-4)GlcNAc(b1-6)[Gal(b1-3)]GalNAc
# Procedure, shortened: as §1
# [19] = biological target: Gal(b1-4)GlcNAc(b1-6)[Gal(b1-4)GlcNAc(b1-3)]GalNAc
# Procedure, shortened: as §1
# [20] = biological target: Gal(b1-4)GlcNAc6P
# Procedure, shortened: as §1
# [21] = biological target: Gal(b1-6)Gal
# Procedure, shortened: as §1
# [22] = biological target: Gal3S(b1-3)GalNAc
# Procedure, shortened: as §1
# [23] = biological target: Gal3S(b1-3)GlcNAc
# Procedure, shortened: as §1
binder,measurement,setting,value
"BabA (Helicobacter pylori), O52269_HELPY (protein) AEDDGFYMSAGYQIGEAAQMVKNTKGIQELSDNYENLSNLLTRYSTLNTLIKLSADPSAVNAARENLGASAKNLIGDTKNSPAYQAVLLAINAAVGFWNVVGYVTQCGGNANGQKSTSSTTIFNNEPGYRSTSITCSLNGHMPGYYGPMSIENFKKLNEAYQILQTALKNGLPALKENNGTVNVTYSYTCSGEGNDNCSLQTTGVTNQNNGTKTETQTIDGKSVTTTISSKVVDSQ",glycan array binding signal (z-score),[1],2.38
same,glycan array binding signal (z-score),[2],2.33
same,glycan array binding signal (z-score),[3],3.86
same,glycan array binding signal (z-score),[4],1.89
same,glycan array binding signal (z-score),[5],1.28
same,glycan array binding signal (z-score),[6],2.17
same,glycan array binding signal (z-score),[7],1.12
same,glycan array binding signal (z-score),[8],4.39
same,glycan array binding signal (z-score),[9],0.79
same,glycan array binding signal (z-score),[10],-0.094
same,glycan array binding signal (z-score),[11],-0.402
same,glycan array binding signal (z-score),[12],-0.255
same,glycan array binding signal (z-score),[13],-0.596
same,glycan array binding signal (z-score),[14],0.245
same,glycan array binding signal (z-score),[15],-1.07
same,glycan array binding signal (z-score),[16],-0.337
same,glycan array binding signal (z-score),[17],-0.445
same,glycan array binding signal (z-score),[18],0.301
same,glycan array binding signal (z-score),[19],-0.568
same,glycan array binding signal (z-score),[20],-0.11
same,glycan array binding signal (z-score),[21],-0.155
same,glycan array binding signal (z-score),[22],0.171
same,glycan array binding signal (z-score),[23],-0.131

# Quoted from the results shown (two entries):
binder,measurement,setting,value
"BabA (Helicobacter pylori), O52269_HELPY (protein) AEDDGFYMSAGYQIGEAAQMVKNTKGIQELSDNYENLSNLLTRYSTLNTLIKLSADPSAVNAARENLGASAKNLIGDTKNSPAYQAVLLAINAAVGFWNVVGYVTQCGGNANGQKSTSSTTIFNNEPGYRSTSITCSLNGHMPGYYGPMSIENFKKLNEAYQILQTALKNGLPALKENNGTVNVTYSYTCSGEGNDNCSLQTTGVTNQNNGTKTETQTIDGKSVTTTISSKVVDSQ",glycan array binding signal (z-score),[14],0.245
same,glycan array binding signal (z-score),[15],-1.07
